From ChEMBL document CHEMBL3988442, “University of Dundee, Small-Polar-MMV Screening Library” (2021).

Toxoplasma: 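Assay of Toxoplasma gondii numbers, read through their beta-galactosidase reporter with a colour substrate. Concentration: 10 µM. Higher reads as fewer parasites (inferred from which compounds were picked for retests). Of about 67,000 compounds tested this way, about 260 (0.38%) reached 50% or more in at least one test.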
T. brucei: 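Whole-parasite assay of Trypanosoma brucei over 72 hours; the read-out is not stated. Compounds at 30 µM. Direction is inferred from retests: higher values go with stronger inhibition. Values scatter widely below zero; nearly all retest evidence comes from the higher of the two concentrations used. Size under these conditions: about 64,000 compounds, about 940 of them at 50% or above in at least one test.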

Values are the deposited “Percent Effect”, in %. The controls that fix the scale are not given in the record; negative values are as filed. Compounds were drawn at random from those tested, without regard to their results. A dash means the value is not listed here; it may have been measured.

{"smiles": "O=C(NCCc1nnc2n1CCCCC2)N1CCC2(CCCC2)CC1", "Toxoplasma": -2.071, "T. brucei": 99.8}
{"smiles": "O=C1OCC(CO)N1Cc1cccc(Cl)c1F", "stereo": "stereo not shown", "Toxoplasma": 23.18, "T. brucei": -8.65}
{"smiles": "COc1c(C2CCCN2C(=O)CCNc2ncccn2)c(C)nn1C", "stereo": "stereo not shown", "Toxoplasma": 14.49}
{"smiles": "CC(C)N1CCOCC2(CN(Cc3ccccn3)CCO2)C1.O=C(O)C(F)(F)F.O=C(O)C(F)(F)F.O=C(O)C(F)(F)F", "stereo": "stereo not shown", "Toxoplasma": -1.33, "T. brucei": 5.635}
{"smiles": "CCn1c(NCc2ccccc2)nc2c(C)nn(C)c2c1=O", "Toxoplasma": 72.53, "T. brucei": -7.911}
{"smiles": "COc1ccc2cc(C3CN(C(=O)CCNC(C)=O)CCO3)ccc2c1", "stereo": "stereo not shown", "Toxoplasma": -0.4489, "T. brucei": -5.111}
{"smiles": "CCc1nnc2n1CCN(Cc1csc(-c3ccccc3)n1)C2", "Toxoplasma": 8.343, "T. brucei": -26.43}
{"smiles": "CCN(C)C[C@@H]1CN(S(=O)(=O)c2ccc(OC)cc2)C[C@@H]1CO", "Toxoplasma": -4.472, "T. brucei": -24.56}
{"smiles": "CC(NC(=O)OC(C)(C)C)c1nnc(S(=O)(=O)Cc2ccccc2Cl)o1", "stereo": "stereo not shown", "Toxoplasma": 30.99, "T. brucei": -50.28}
{"smiles": "O=C1CCCN1CCC1CCN(C2CCC3(CCNCC3)CC2)CC1", "Toxoplasma": -1.873, "T. brucei": -20.46}
{"smiles": "CCN(C)c1ccc(C(=O)NCCCc2ccccn2)cn1", "Toxoplasma": -0.4477, "T. brucei": -6.426}
{"smiles": "CC(CN1CCCC1=O)NC(=O)c1cc(Cl)c2c(c1)OCO2", "stereo": "stereo not shown", "Toxoplasma": 12.62}
{"smiles": "Cc1cc(CN2CCN(C(=O)NCc3csc(C)n3)CC2)no1", "Toxoplasma": -3.649, "T. brucei": -24.42}
{"smiles": "CCOC(=O)CCNC(=O)c1nc(OCC)ccc1Cl", "Toxoplasma": -3.052, "T. brucei": 7.466}
{"smiles": "[H][C@@]12CCN(C(=O)c3cnccn3)C[C@@]1([H])O[C@H](c1nc(C)cs1)C2", "Toxoplasma": -4.628, "T. brucei": -56.98}
{"smiles": "c1ccc(Cc2nnc(CN3CCc4cncnc4C3)o2)cc1", "Toxoplasma": 3.238}
{"smiles": "O=C(NCc1ccccn1)c1cncc(C2CCCN2)n1", "stereo": "stereo not shown", "Toxoplasma": 8.85}
{"smiles": "CN1CCC/C1=N\\S(=O)(=O)c1ccc(NC(=O)c2ccc(F)cc2)cc1", "Toxoplasma": -1.001, "T. brucei": 1.589}
{"smiles": "CC(C)c1noc(CCC(=O)NCC2CCS(=O)(=O)C2)n1", "stereo": "stereo not shown", "Toxoplasma": -0.9104, "T. brucei": -14.25}
{"smiles": "c1coc(CN2CCC3(CC2)CC(N2CCCC2)CO3)c1", "stereo": "stereo not shown", "Toxoplasma": 11.6, "T. brucei": -10.41}
{"smiles": "O=C(O)C(F)(F)F.[H][C@]12CCC[C@@]1(COCc1ccncc1)CN(C(=O)c1ncccn1)C2", "Toxoplasma": -4.435, "T. brucei": 14.62}
{"smiles": "CCc1cnc2c(c1Nc1ccc(C)c(F)c1)c(=O)n(C)c(=O)n2C", "Toxoplasma": 5.456, "T. brucei": 1.551}
{"smiles": "CSc1ccc(C(=O)N2CC(=O)N(CC(C)(C)C)CC(O)C2)cc1", "stereo": "stereo not shown", "Toxoplasma": -12.81, "T. brucei": 10.9}
{"smiles": "O=C(NCc1ccc(Br)cc1F)C1(O)CCSCC1", "Toxoplasma": -3.366, "T. brucei": 11.67}
{"smiles": "CCc1nccn1C1CCCN(C(=O)c2ccc3[nH]c(=O)[nH]c3c2)C1", "stereo": "stereo not shown", "Toxoplasma": 6.458, "T. brucei": 7.515}
{"smiles": "O=C(CC1CCC2(CC1)CCN(Cc1ccncc1)CC2)N1CCCC1.O=C(O)C(F)(F)F", "Toxoplasma": 4.307, "T. brucei": -30.07}
{"smiles": "Cc1cc(C(=O)NC2CCc3c(ccc(=O)n3CCN(C)C)C2)no1", "stereo": "stereo not shown", "Toxoplasma": 22.58, "T. brucei": -52.75}
{"smiles": "CC(c1cccs1)N(C)Cc1cnc(-c2ccccn2)nc1", "stereo": "stereo not shown", "Toxoplasma": 33.49, "T. brucei": -9.193}
{"smiles": "Cn1cnn(Cc2ccccc2F)c1=O", "Toxoplasma": -1.073, "T. brucei": -84.39}
{"smiles": "Cc1ccc([C@@H]2CN(S(=O)(=O)Cc3ccccc3)C[C@H]2N(C)C)cc1", "Toxoplasma": -52.81, "T. brucei": -41.11}
{"smiles": "O=C(O)C(F)(F)F.[H][C@]12C[C@H](C(=O)NC)N(S(C)(=O)=O)[C@@]1([H])CN(C(=O)c1ccncc1)C2", "Toxoplasma": 2.233, "T. brucei": -12.29}
{"smiles": "CC1(C(=O)NC2CCCC2)CN(c2cnccn2)CCO1", "stereo": "stereo not shown", "Toxoplasma": -11.13, "T. brucei": -3.019}
{"smiles": "O=C1COc2cccc(OCc3ccccn3)c2N1", "Toxoplasma": -1.89, "T. brucei": -3.236}
{"smiles": "Cc1nccn1C1CCCN(C(=O)COC2CCCC2)C1", "stereo": "stereo not shown", "Toxoplasma": -1.993}
{"smiles": "O=C(NCc1cc(-c2ccccc2)no1)NCC1CCCO1", "stereo": "stereo not shown", "Toxoplasma": -6.414, "T. brucei": 11.29}
{"smiles": "CN1CC[C@]2(CN(CC3CCOCC3)C[C@H]2c2ccccc2)C1=O.O=C(O)C(F)(F)F", "Toxoplasma": 11.21, "T. brucei": -1.885}
{"smiles": "Nc1cc2c(nn1)CCN(C(=O)C1CCc3ccccc31)C2", "stereo": "stereo not shown", "Toxoplasma": -6.669, "T. brucei": -7.664}
{"smiles": "CN1CCCCC1c1ncc2c(n1)CCN(CCCc1ccccc1)C2", "stereo": "stereo not shown", "Toxoplasma": 2.464, "T. brucei": 98.5}
{"smiles": "CC(C)c1nn(C)c(N(C)C)c1CNCCC(=O)NC1CCCC1", "Toxoplasma": -9.102, "T. brucei": -0.9873}
{"smiles": "CC(C)[C@H](C)NC1CCN(c2ccc(-c3cscn3)cc2)CC1", "Toxoplasma": 0.9346, "T. brucei": -6.723}
{"smiles": "CCSc1cc(C(=O)N(C(C)C)C2CC2)ccn1", "Toxoplasma": -5.175, "T. brucei": -6.258}
{"smiles": "CC(C)CCN1CCCC12Cc1ccccc1CNC2=O", "stereo": "stereo not shown", "Toxoplasma": -0.6823}

For reference, 5 entries once more:

SMILES,Toxoplasma,T. brucei
COc1c(C2CCCN2C(=O)CCNc2ncccn2)c(C)nn1C (stereo not shown),14.49,-
CCc1nccn1C1CCCN(C(=O)c2ccc3[nH]c(=O)[nH]c3c2)C1 (stereo not shown),6.458,7.515
CC1(C(=O)NC2CCCC2)CN(c2cnccn2)CCO1 (stereo not shown),-11.13,-3.019
CCc1nnc2n1CCN(Cc1csc(-c3ccccc3)n1)C2,8.343,-26.43
CC(C)CCN1CCCC12Cc1ccccc1CNC2=O (stereo not shown),-0.6823,-